PubChem BioAssay AID652272 | Drosophila RNAi Screening Center, 2013

- Purpose: 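Finding fly genes that regulate Hedgehog signal transduction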 (primary screen)
- Cells: Drosophila clone 8 (Cl8) cells
- Reagent: long dsRNA against Drosophila genes
- Detection: 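Firefly light from a Hedgehog-responsive ptc promoter reporter and Renilla reference light, both read on a plate reader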
- Reading the numbers: firefly Hh reporter signal: higher = more ptc reporter light; Renilla reference signal: higher = more Renilla control light
- Rule for the call: 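Hit when the z-score averaged over two replicates is under -2 or over +3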
- Calls: active = hit: reporter lowered or raised; inactive = not a hit
In all, the deposit lists about 21,000 reagents; shown is a random part of those that have a named target and a result. Over the whole deposit, 503 (2.4%) were called active. 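Raw plate light values, not normalised; calls rest on replicate z-scores that were not deposited; hits include reporter decreases as well as increases.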 Unmarked entries are inactive. Not given: the amount of reagent, the time to read-out.

Ero1L (GeneID 38500) [DRSC08660] — firefly Hh reporter signal, replicate 1: 1.09e5; firefly Hh reporter signal, replicate 2: 56578; Renilla reference signal, replicate 1: 4524; Renilla reference signal, replicate 2: 2400
CG6621 (GeneID 41319) [DRSC16076] — firefly Hh reporter signal, replicate 1: 83280; firefly Hh reporter signal, replicate 2: 80791; Renilla reference signal, replicate 1: 3850; Renilla reference signal, replicate 2: 2775
PIP4K (GeneID 3885565) [DRSC17213] — firefly Hh reporter signal, replicate 1: 98044; firefly Hh reporter signal, replicate 2: 2.53e5; Renilla reference signal, replicate 1: 4087; Renilla reference signal, replicate 2: 9650
toe (GeneID 39418) [DRSC09174] — firefly Hh reporter signal, replicate 1: 88508; firefly Hh reporter signal, replicate 2: 2.28e5; Renilla reference signal, replicate 1: 2712; Renilla reference signal, replicate 2: 8954
toe (GeneID 39418) [DRSC09783] — firefly Hh reporter signal, replicate 1: 76420; firefly Hh reporter signal, replicate 2: 43877; firefly Hh reporter signal, replicate 3: 25056; Renilla reference signal, replicate 1: 1720; Renilla reference signal, replicate 2: 1661
Idi (GeneID 42526) [DRSC15918] — firefly Hh reporter signal, replicate 1: 74514; firefly Hh reporter signal, replicate 2: 1.09e5; Renilla reference signal, replicate 1: 3648; Renilla reference signal, replicate 2: 4547
CG1137 (GeneID 40803) [DRSC12529] — firefly Hh reporter signal, replicate 1: 48584; firefly Hh reporter signal, replicate 2: 72407; Renilla reference signal, replicate 1: 1794; Renilla reference signal, replicate 2: 2168
CG12991 (GeneID 32734) [DRSC19511] — firefly Hh reporter signal, replicate 1: 67767; firefly Hh reporter signal, replicate 2: 1.90e5; Renilla reference signal, replicate 1: 1700; Renilla reference signal, replicate 2: 7769
CG17105 (GeneID 34466) [DRSC02574] — firefly Hh reporter signal, replicate 1: 95141; firefly Hh reporter signal, replicate 2: 40662; Renilla reference signal, replicate 1: 2041; Renilla reference signal, replicate 2: 3610
dsh (GeneID 32078) [DRSC19803] — firefly Hh reporter signal, replicate 1: 91490; firefly Hh reporter signal, replicate 2: 2.33e5; Renilla reference signal, replicate 1: 3261; Renilla reference signal, replicate 2: 8502
CG33096 (GeneID 326251) [DRSC14440] — firefly Hh reporter signal, replicate 1: 1.06e5; firefly Hh reporter signal, replicate 2: 69349; Renilla reference signal, replicate 1: 4272; Renilla reference signal, replicate 2: 2412
CG3649 (GeneID 37626) [DRSC04400] — firefly Hh reporter signal, replicate 1: 1.60e5; firefly Hh reporter signal, replicate 2: 1.08e5; Renilla reference signal, replicate 1: 3573; Renilla reference signal, replicate 2: 8452
CG16965 (GeneID 34607) [DRSC02547] — firefly Hh reporter signal, replicate 1: 78438; firefly Hh reporter signal, replicate 2: 60205; Renilla reference signal, replicate 1: 1849; Renilla reference signal, replicate 2: 5428
Cpr49Ag (GeneID 36353) [DRSC07203] — firefly Hh reporter signal, replicate 1: 1.23e5; firefly Hh reporter signal, replicate 2: 1.25e5; Renilla reference signal, replicate 1: 3041; Renilla reference signal, replicate 2: 7960
CG12836 (GeneID 35630) [DRSC06182] — firefly Hh reporter signal, replicate 1: 79376; firefly Hh reporter signal, replicate 2: 50633; Renilla reference signal, replicate 1: 1735; Renilla reference signal, replicate 2: 4524
kn (GeneID 45318) [DRSC05505] — firefly Hh reporter signal, replicate 1: 7.34e5; firefly Hh reporter signal, replicate 2: 1.93e5; firefly Hh reporter signal, replicate 3: 1.34e5; Renilla reference signal, replicate 1: 5316; Renilla reference signal, replicate 2: 5492
kn (GeneID 45318) [DRSC05507] — firefly Hh reporter signal, replicate 1: 1.61e5; firefly Hh reporter signal, replicate 2: 3.62e5; Renilla reference signal, replicate 1: 4517; Renilla reference signal, replicate 2: 13900
kn (GeneID 45318) [DRSC06196] — firefly Hh reporter signal, replicate 1: 56276; firefly Hh reporter signal, replicate 2: 49219; Renilla reference signal, replicate 1: 1648; Renilla reference signal, replicate 2: 4298
kn (GeneID 45318) [DRSC07637] — firefly Hh reporter signal, replicate 1: 65213; firefly Hh reporter signal, replicate 2: 45718; Renilla reference signal, replicate 1: 1568; Renilla reference signal, replicate 2: 3746
eIF4E1 (GeneID 45525) [DRSC11342] — firefly Hh reporter signal, replicate 1: 1.16e5 (active); firefly Hh reporter signal, replicate 2: 72289; Renilla reference signal, replicate 1: 2971; Renilla reference signal, replicate 2: 1850
CG14218 (GeneID 32949) [DRSC19575] — firefly Hh reporter signal, replicate 1: 1.66e5; firefly Hh reporter signal, replicate 2: 6.85e5; firefly Hh reporter signal, replicate 3: 3.51e5; Renilla reference signal, replicate 1: 5882; Renilla reference signal, replicate 2: 4881

Just “firefly Hh reporter signal, replicate 2” (3 entries from above):
CG12991 (GeneID 32734) [DRSC19511]	1.90e5
CG17105 (GeneID 34466) [DRSC02574]	40662
dsh (GeneID 32078) [DRSC19803]	2.33e5
